Data as given in doi:10.1101/2020.05.12.092270.
No constants are given. Whether binding was seen depends on the method and setting. Binding seen in cells or lysates may run through a third protein.

The chains behind the UniProt entries cited, without tags or fusion partners. Where a name states a change or a piece, a line headed by the entry shows the natural chain unless it says otherwise.
UniProt Q07955: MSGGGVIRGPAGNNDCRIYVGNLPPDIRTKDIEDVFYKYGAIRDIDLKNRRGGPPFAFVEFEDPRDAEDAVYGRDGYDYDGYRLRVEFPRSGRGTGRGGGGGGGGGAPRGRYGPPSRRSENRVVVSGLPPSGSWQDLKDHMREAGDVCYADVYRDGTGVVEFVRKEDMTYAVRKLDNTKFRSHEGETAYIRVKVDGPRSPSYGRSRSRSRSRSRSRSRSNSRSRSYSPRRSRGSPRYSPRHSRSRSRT
UniProt Q9NRR4: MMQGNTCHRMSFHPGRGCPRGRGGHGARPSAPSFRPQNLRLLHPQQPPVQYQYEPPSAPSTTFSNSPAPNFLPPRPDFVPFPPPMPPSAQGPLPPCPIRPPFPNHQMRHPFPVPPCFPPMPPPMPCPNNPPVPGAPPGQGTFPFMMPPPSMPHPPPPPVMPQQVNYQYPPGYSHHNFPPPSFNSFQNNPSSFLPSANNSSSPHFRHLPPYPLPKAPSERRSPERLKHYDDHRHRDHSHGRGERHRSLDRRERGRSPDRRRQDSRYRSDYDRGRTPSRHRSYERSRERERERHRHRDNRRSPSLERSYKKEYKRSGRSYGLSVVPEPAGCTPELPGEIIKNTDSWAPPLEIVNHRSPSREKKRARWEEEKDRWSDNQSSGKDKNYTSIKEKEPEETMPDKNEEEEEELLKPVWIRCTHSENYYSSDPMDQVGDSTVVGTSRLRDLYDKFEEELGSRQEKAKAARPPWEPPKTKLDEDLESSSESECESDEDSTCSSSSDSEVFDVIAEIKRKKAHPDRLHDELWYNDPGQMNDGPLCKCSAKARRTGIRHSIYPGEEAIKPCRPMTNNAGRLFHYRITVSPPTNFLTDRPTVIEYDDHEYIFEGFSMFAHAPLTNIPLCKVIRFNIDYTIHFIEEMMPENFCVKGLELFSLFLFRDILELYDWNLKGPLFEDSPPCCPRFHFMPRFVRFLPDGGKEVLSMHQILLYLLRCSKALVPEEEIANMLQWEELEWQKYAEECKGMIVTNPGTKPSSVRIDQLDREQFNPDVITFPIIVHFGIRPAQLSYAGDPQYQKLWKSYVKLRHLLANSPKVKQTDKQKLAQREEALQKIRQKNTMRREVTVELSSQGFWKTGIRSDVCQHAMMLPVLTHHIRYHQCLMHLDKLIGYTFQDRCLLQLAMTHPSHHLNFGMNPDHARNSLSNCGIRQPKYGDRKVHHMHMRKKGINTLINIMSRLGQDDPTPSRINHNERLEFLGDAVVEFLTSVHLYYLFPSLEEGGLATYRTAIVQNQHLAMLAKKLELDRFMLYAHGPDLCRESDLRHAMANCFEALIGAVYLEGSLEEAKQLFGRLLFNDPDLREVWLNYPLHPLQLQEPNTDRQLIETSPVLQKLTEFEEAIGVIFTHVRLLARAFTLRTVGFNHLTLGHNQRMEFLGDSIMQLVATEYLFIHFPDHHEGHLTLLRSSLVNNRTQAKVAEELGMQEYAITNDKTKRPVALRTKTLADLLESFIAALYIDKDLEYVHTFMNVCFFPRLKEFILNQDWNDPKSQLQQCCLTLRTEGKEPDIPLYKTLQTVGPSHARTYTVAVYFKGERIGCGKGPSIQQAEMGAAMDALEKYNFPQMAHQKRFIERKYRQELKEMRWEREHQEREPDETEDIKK

Target: T7-SRSF1 (UniProt Q07955)
Experiment: co-IP

binding: no binding
Substance: Microprocessor complex consisting of Drosha and DGCR8 (from UniProt Q9NRR4 1-1374; Q8WYQ5 1-773)
